Measurements reported in PubChem BioAssay AID686938 (Drosophila RNAi Screening Center, 2013).
The deposit covers about 23,000 reagents; this is an unselected part of those with a known target gene and a result. In the full data, 75 (0.33%) are marked active. 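Raw plate signals without normalisation; calls rest on plate z-scores that were not deposited; ratio present for only 364 wells.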 A plus sign joins genes that one reagent is predicted to hit. Reagent sequences are not shown. The record does not give: the dose of the treatment.

Assay: 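Knock-downs reducing store-operated calcium influx in Drosophila cells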 (primary screen)
Cell system: Drosophila S2R+ cells
Knock-down reagent: long dsRNA against Drosophila genes, about 0.25 µg dsRNA per well, roughly 10,000 cells
Time to read-out: 5 days of knock-down before the calcium assay
Treatment: thapsigargin (SERCA pump blocker) to empty calcium stores; entry signal taken 4 min after adding it
Measured: 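Duplicate raw fluo-4 intensities per well from a plate reader, at rest and four minutes after thapsigargin emptied calcium stores; entry-to-rest ratio filled for only some wells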
Direction: calcium entry signal: higher = stronger calcium signal after store depletion; resting calcium signal: higher = higher resting calcium signal
Units: calcium entry signal in fluorescence units; resting calcium signal in fluorescence units
Rule for the call: 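Hit if the duplicate-averaged plate z-score for entry over resting signal is under −3; wells with weak total dye signal (Fmax z < −2) or more than 5 off-targets removed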
Calls: active = strongly reduced calcium entry; inactive = no strong reduction

CG5039 [DRSC15703] gave calcium entry signal, replicate 1 = 4.60e7; calcium entry signal, replicate 2 = 5.23e7; resting calcium signal, replicate 1 = 2.10e7; resting calcium signal, replicate 2 = 2.28e7; inactive. Silencing of CG17211 [DRSC02587] came out at: calcium entry signal, replicate 1 = 3.72e7; calcium entry signal, replicate 2 = 2.52e7; resting calcium signal, replicate 1 = 1.77e7; resting calcium signal, replicate 2 = 1.23e7; inactive. For Syx13 [DRSC09836], the entry reads calcium entry signal, replicate 1 = 3.01e7; calcium entry signal, replicate 2 = 4.15e7; resting calcium signal, replicate 1 = 1.68e7; resting calcium signal, replicate 2 = 1.94e7; inactive. For CG18190 [DRSC06714], the entry reads calcium entry signal, replicate 1 = 4.14e7; calcium entry signal, replicate 2 = 3.69e7; resting calcium signal, replicate 1 = 1.71e7; resting calcium signal, replicate 2 = 1.96e7; inactive. After knock-down of CG33648 [DRSC01387], the record shows calcium entry signal, replicate 1 = 2.69e7; calcium entry signal, replicate 2 = 3.83e7; resting calcium signal, replicate 1 = 1.48e7; resting calcium signal, replicate 2 = 1.55e7; inactive. For CG7916 [DRSC01901] the deposit lists calcium entry signal, replicate 1 = 4.91e7; calcium entry signal, replicate 2 = 3.06e7; resting calcium signal, replicate 1 = 2.19e7; resting calcium signal, replicate 2 = 1.46e7; inactive.

Targets above whose gene name starts with C or c:
CG5039 [DRSC15703] — calcium entry signal, replicate 1 = 4.60e7; calcium entry signal, replicate 2 = 5.23e7; resting calcium signal, replicate 1 = 2.10e7; resting calcium signal, replicate 2 = 2.28e7; Outcome = inactive
CG17211 [DRSC02587] — calcium entry signal, replicate 1 = 3.72e7; calcium entry signal, replicate 2 = 2.52e7; resting calcium signal, replicate 1 = 1.77e7; resting calcium signal, replicate 2 = 1.23e7; Outcome = inactive
CG18190 [DRSC06714] — calcium entry signal, replicate 1 = 4.14e7; calcium entry signal, replicate 2 = 3.69e7; resting calcium signal, replicate 1 = 1.71e7; resting calcium signal, replicate 2 = 1.96e7; Outcome = inactive
CG33648 [DRSC01387] — calcium entry signal, replicate 1 = 2.69e7; calcium entry signal, replicate 2 = 3.83e7; resting calcium signal, replicate 1 = 1.48e7; resting calcium signal, replicate 2 = 1.55e7; Outcome = inactive
CG7916 [DRSC01901] — calcium entry signal, replicate 1 = 4.91e7; calcium entry signal, replicate 2 = 3.06e7; resting calcium signal, replicate 1 = 2.19e7; resting calcium signal, replicate 2 = 1.46e7; Outcome = inactive

Additional reagents:
Silencing of CG32773 (retired record) [DRSC17330] resulted in: calcium entry signal, replicate 1 = 7.55e7; calcium entry signal, replicate 2 = 3.84e7; resting calcium signal, replicate 1 = 3.56e7; resting calcium signal, replicate 2 = 1.91e7; inactive. Depletion of GV1 [DRSC08228] gave: calcium entry signal, replicate 1 = 3.91e7; calcium entry signal, replicate 2 = 3.91e7; resting calcium signal, replicate 1 = 2.09e7; resting calcium signal, replicate 2 = 1.98e7; inactive. CG15152 [DRSC02453] scored calcium entry signal, replicate 1 = 4.33e7; calcium entry signal, replicate 2 = 3.35e7; resting calcium signal, replicate 1 = 2.00e7; resting calcium signal, replicate 2 = 1.68e7; inactive. After knock-down of Neb-cGP [DRSC17991], the record shows calcium entry signal, replicate 1 = 2.67e7; calcium entry signal, replicate 2 = 4.61e7; resting calcium signal, replicate 1 = 1.39e7; resting calcium signal, replicate 2 = 2.24e7; inactive. After knock-down of bond [DRSC16135], the screen gave calcium entry signal, replicate 1 = 3.74e7; calcium entry signal, replicate 2 = 2.54e7; resting calcium signal, replicate 1 = 1.80e7; resting calcium signal, replicate 2 = 1.39e7; inactive. After knock-down of CG12290 [DRSC14497] the results were calcium entry signal, replicate 1 = 2.94e7; calcium entry signal, replicate 2 = 3.67e7; resting calcium signal, replicate 1 = 1.37e7; resting calcium signal, replicate 2 = 1.79e7; inactive.

Rrp1 [DRSC00784] showed calcium entry signal, replicate 1 = 2.41e7; calcium entry signal, replicate 2 = 3.86e7; resting calcium signal, replicate 1 = 1.19e7; resting calcium signal, replicate 2 = 1.98e7; inactive. After knock-down of IP3K1 + hpRNA:CR18854 [DRSC23313] the results were calcium entry signal, replicate 1 = 3.95e7; calcium entry signal, replicate 2 = 4.92e7; resting calcium signal, replicate 1 = 1.62e7; resting calcium signal, replicate 2 = 1.99e7; inactive.
